According to article PMC10666023:
These are yes or no findings as the source states them, for the method shown. Binding calls can cover weak binding; strength is not graded here.

Amino acid sequences for entries named in this document (tags omitted). A change or cut given only in a name is not applied to a line headed by its entry.
UniProt Q6NZQ4: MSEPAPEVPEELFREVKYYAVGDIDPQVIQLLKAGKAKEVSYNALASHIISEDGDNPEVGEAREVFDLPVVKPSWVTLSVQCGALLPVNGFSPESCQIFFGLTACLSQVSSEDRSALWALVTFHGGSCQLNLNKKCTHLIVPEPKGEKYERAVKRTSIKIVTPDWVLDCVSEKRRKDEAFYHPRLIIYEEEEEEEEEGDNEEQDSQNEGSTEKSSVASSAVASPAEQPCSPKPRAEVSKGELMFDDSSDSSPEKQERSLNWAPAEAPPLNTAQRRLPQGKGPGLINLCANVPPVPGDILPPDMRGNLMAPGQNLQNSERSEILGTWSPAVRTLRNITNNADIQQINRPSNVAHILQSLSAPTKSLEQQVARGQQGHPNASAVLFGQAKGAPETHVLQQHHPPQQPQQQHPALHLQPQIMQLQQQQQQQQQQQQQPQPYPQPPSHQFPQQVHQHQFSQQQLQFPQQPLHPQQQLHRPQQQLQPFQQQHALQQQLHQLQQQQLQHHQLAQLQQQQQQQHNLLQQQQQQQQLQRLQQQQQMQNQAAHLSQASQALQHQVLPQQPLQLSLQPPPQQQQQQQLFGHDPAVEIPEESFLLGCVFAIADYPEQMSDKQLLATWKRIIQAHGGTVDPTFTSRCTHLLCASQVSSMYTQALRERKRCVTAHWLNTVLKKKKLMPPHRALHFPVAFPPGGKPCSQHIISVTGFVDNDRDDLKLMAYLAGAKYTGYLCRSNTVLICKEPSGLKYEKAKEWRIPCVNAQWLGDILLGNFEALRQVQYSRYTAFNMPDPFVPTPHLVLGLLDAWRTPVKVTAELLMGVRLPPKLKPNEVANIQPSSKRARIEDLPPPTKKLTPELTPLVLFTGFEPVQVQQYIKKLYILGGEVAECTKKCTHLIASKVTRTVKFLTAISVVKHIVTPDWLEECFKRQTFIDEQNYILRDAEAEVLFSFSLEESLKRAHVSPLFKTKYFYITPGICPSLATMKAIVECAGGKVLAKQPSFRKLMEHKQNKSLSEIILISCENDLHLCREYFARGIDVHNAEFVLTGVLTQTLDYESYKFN
UniProt Q9CWH4: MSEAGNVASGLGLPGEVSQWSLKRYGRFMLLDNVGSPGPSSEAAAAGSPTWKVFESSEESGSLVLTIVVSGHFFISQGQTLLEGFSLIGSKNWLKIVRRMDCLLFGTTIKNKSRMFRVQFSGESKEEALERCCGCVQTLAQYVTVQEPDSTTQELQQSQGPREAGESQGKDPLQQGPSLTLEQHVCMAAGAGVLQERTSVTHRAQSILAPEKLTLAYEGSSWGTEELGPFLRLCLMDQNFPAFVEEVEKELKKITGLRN
UniProt A0A140LI88: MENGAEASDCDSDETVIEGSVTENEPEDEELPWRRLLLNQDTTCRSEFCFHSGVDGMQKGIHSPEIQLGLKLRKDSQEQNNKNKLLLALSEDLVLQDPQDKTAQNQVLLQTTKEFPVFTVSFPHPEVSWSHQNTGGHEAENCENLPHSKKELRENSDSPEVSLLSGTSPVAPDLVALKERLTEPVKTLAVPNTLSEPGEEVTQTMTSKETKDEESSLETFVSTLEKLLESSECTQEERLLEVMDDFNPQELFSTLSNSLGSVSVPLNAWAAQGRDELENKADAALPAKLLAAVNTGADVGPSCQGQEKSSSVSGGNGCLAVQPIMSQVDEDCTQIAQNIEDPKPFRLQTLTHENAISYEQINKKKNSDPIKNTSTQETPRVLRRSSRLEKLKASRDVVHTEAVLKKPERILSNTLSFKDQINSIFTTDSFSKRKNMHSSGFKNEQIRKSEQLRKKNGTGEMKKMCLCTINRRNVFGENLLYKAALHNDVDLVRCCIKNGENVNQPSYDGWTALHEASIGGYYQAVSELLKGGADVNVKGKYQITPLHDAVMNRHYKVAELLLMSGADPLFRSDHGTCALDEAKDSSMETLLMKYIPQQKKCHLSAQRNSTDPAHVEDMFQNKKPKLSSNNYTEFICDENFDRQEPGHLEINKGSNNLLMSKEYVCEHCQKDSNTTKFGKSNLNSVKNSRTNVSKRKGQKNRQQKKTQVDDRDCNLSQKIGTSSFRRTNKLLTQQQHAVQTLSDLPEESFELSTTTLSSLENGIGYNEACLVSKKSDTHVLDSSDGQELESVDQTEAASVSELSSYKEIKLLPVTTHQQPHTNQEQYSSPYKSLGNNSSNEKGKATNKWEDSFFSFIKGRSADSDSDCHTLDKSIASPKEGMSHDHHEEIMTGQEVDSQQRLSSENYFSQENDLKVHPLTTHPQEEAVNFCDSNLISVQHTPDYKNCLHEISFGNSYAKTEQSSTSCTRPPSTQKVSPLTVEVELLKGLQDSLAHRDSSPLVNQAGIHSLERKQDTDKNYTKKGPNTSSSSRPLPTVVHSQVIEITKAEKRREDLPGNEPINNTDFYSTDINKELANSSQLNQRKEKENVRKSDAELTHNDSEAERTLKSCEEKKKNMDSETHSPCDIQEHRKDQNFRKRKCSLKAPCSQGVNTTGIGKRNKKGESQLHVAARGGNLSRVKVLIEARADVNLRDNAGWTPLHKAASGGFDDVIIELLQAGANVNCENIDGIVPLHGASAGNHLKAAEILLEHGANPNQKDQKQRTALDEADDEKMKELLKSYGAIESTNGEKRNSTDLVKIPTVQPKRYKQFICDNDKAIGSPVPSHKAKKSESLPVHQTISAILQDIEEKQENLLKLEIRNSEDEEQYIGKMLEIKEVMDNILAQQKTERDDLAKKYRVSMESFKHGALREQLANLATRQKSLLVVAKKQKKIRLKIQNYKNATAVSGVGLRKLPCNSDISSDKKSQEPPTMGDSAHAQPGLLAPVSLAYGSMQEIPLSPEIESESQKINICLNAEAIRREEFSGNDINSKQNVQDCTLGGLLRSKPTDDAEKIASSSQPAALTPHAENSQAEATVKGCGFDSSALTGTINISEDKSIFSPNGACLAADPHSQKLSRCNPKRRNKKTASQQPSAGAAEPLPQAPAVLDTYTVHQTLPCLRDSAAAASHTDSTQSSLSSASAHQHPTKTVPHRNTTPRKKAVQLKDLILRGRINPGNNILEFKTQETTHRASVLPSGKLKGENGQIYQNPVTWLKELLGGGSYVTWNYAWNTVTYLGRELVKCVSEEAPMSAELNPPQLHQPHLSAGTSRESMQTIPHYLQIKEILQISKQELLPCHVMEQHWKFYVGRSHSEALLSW

Assays:
Test in all cases: two-hybrid; yeast two-hybrid of full-length ANKRD31 (wild type, EA, ΔC) as Gal4 AD and BD fusions with full-length or parts of REC114, MEI1, PTIP, ZMYM3; selection by amino acid dropouts and aureobasidin at moderate (+) and high (++) stringency
ZMYM3 = target: T1, ZMYM3 (UniProt Q9JLM4)
T1 sequence: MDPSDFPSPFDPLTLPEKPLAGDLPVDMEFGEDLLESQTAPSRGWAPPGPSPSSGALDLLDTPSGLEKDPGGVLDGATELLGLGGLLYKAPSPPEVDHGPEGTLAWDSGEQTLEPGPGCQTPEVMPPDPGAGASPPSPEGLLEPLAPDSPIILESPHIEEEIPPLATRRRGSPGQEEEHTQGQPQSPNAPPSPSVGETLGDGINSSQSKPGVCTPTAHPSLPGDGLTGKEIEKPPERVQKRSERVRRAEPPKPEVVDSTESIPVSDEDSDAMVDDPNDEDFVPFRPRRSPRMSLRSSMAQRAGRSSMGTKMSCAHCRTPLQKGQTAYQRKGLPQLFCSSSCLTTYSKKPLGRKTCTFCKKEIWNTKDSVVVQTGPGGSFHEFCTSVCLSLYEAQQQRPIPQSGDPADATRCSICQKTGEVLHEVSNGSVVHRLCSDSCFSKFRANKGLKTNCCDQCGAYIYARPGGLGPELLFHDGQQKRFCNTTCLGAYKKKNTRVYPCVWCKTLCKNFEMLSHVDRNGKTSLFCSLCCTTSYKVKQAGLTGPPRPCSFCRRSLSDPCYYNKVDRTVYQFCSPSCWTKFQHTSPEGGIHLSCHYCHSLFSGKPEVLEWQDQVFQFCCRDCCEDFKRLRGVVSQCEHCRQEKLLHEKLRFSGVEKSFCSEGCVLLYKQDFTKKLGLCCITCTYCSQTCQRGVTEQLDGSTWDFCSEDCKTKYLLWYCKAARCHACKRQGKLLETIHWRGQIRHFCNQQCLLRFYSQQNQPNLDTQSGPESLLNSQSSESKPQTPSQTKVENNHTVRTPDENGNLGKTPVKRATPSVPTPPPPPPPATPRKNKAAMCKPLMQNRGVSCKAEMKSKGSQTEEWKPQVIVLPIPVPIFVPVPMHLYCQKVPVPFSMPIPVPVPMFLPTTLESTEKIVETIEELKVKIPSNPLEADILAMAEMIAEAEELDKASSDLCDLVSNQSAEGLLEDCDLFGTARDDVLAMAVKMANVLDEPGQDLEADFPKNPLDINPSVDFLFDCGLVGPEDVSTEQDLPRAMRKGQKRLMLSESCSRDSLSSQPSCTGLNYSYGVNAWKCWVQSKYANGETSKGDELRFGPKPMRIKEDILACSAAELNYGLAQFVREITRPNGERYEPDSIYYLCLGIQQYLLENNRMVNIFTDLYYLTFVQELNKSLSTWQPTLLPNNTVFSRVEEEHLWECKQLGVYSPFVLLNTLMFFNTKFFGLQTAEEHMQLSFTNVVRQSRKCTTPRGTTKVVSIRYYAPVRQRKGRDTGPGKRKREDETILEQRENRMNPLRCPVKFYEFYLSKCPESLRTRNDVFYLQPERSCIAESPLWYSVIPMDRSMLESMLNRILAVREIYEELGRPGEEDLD

PTIP = PTIP (UniProt Q6NZQ4)
MEI1 = target: T2, MEI1 (UniProt Q9D4I2)
T2 sequence: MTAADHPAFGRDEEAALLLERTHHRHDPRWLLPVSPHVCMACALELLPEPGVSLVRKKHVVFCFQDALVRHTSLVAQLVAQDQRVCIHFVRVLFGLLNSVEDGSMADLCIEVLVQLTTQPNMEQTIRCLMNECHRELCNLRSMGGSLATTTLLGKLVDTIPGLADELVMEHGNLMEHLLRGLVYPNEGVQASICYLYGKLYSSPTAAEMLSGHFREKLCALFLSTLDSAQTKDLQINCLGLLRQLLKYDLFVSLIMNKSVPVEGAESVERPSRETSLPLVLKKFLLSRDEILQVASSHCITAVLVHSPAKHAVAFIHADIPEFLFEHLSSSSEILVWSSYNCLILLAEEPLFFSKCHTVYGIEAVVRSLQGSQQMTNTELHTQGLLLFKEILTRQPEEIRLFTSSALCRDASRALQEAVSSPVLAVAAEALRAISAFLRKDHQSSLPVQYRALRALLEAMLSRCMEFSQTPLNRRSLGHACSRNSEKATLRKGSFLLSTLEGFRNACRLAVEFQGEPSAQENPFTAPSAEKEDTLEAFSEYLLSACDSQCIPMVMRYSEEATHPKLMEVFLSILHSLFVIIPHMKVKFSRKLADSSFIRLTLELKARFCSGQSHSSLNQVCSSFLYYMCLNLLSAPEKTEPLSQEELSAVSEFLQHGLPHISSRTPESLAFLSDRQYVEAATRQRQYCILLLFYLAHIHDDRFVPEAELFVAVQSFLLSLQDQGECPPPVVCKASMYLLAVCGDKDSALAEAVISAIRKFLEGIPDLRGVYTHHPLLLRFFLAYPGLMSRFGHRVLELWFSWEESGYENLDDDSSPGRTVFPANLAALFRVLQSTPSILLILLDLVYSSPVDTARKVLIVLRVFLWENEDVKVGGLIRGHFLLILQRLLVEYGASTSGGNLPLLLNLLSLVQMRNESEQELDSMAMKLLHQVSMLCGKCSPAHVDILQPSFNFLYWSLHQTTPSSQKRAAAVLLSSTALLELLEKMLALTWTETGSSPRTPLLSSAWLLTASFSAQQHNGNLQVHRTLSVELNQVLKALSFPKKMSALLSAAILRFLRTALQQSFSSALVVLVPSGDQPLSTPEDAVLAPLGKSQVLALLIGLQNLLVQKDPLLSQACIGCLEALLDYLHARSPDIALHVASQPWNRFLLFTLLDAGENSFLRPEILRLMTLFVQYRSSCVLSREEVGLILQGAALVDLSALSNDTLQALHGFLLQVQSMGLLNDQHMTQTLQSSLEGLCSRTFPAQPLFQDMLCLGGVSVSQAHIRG

[1] = target: REC114N, REC114 residues 1–158 (N-terminal pleckstrin homology domain) (mouse) (UniProt Q9CWH4)

Substance	binding (ZMYM3)	binding (PTIP)	binding (MEI1)	binding [1]
ANKRD31-ΔC, otherwise full-length ANKRD31 with the C-terminal frameshift truncation (from UniProt A0A140LI88)	binds	binds	binds	no binding
ANKRD31 (Ankyrin Repeat Domain Containing 31), full-length wild type (from UniProt A0A140LI88 1-1857)	–	–	–	binds
